Results as given in article PMC10759229.
Where a chain is given by its changes, count along the chain named. Results are given in words; binding and its absence hold for the method and conditions named. Binding seen in cells or lysates may run through a third protein. Some results given as binding are weak or reduced against the parent protein; the word gives no strength. Sequences can lack the tags named with a protein.

Protein sequences, listed by entry. Tags and fused reporters are not part of them. Lines headed by an entry give the natural chain unless they say otherwise; changes in a name come on top.
UniProt Q9NQU5: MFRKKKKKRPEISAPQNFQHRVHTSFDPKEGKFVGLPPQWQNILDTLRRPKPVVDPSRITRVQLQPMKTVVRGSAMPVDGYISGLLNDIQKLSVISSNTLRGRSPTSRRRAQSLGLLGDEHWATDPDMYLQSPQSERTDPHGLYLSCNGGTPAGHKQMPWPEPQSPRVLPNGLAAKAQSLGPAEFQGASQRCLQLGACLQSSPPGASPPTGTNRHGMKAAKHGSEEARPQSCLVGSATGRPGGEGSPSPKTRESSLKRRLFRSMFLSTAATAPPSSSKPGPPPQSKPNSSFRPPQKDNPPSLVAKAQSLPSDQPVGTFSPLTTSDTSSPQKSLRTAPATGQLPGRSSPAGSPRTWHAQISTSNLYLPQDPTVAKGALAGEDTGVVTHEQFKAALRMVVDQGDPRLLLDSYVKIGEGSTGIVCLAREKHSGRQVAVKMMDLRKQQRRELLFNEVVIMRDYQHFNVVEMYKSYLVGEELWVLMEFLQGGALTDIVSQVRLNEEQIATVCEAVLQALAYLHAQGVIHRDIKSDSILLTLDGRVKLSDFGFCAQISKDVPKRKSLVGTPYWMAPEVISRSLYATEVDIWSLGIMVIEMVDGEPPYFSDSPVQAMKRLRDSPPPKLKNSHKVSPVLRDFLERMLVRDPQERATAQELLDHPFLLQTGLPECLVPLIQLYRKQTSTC

Legend:
[1] = target: T1, 3xFlag-PPP2R2C S381A (phosphodeficient) (UniProt Q9Y2T4); assay: co-IP; HEK293T cells co-transfected with 3xFlag-PPP2R2C and 2xMyc-PAK6; lysate incubated with anti-Flag M2 agarose or GFP-TrapA beads for 2 h or overnight at 4°C; western blot (Figures 1B and 3D)
T1 sequence: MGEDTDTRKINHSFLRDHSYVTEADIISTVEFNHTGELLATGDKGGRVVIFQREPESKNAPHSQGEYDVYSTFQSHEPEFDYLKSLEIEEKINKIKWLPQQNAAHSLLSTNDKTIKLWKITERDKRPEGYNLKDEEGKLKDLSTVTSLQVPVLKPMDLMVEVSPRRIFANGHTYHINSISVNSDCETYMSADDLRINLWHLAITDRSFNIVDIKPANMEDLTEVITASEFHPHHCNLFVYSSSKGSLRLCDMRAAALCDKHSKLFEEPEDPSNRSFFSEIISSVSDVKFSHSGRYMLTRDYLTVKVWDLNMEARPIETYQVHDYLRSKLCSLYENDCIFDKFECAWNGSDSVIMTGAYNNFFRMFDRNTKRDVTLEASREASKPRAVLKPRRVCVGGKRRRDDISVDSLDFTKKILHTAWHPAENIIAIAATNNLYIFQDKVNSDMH

[2] = target: T2, 3xFlag-PPP2R2C wild-type (PP2A regulatory subunit B, gamma isoform a) (UniProt Q9Y2T4); assay: as above
T2 sequence: T1 sequence with A381S

| Substance | binding [1] | binding [2] |
| --- | --- | --- |
| 2xMyc-PAK6 S531N (constitutively active) (from UniProt Q9NQU5 1-681) (enzyme) | binds | binds |
| 2xMyc-PAK6 WT (p21-activated kinase 6) (from UniProt Q9NQU5 1-681) (enzyme) |  | binds |
